Reference: article doi:10.1101/2022.06.14.496144

Chains of the proteins cited; added tags and fusions are not shown. Lines headed by an entry give the natural chain unless they say otherwise; changes in a name come on top.
UniProt B5W3T4: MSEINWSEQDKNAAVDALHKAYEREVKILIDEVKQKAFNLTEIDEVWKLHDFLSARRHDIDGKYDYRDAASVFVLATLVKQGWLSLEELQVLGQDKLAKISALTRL

Molecular target: T1, SynOCP1 lacking the N-terminal extension (ΔNTE-SynOCP1) (Synechocystis sp. PCC 6803) (UniProt P74102)
T1 sequence: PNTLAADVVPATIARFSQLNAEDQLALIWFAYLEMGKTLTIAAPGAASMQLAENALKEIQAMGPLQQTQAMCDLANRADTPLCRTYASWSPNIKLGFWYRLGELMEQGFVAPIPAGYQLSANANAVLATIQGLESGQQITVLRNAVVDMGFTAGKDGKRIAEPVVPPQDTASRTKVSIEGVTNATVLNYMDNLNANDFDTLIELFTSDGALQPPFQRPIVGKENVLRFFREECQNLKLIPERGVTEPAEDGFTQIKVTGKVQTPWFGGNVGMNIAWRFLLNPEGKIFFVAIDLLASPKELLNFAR
Test: SEC

**Q.** How did the binding turn out when “Fluorescence Recovery Protein homolog from Arthrospira (Limnospira) maxima (AmaxFRP) (from UniProt B5W3T4)” was run?
**A.** Its binding is “binds”.

Results are given in words; binding and its absence hold for the method and conditions named. A result given as binding can be weak or reduced; the word gives no strength.
